PubChem BioAssay AID686943 – Drosophila RNAi Screening Center, 2013
The screen tested about 23,000 reagents; shown is a random part of those with a known target gene and a result. 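Extra replicates exist only for a retested subset of genes; insulin dose and duration not given; both raised and lowered dpERK matter.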 A plus sign joins genes that one reagent is predicted to hit. Not given: the amount of reagent, the time to read-out.

Screen: 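Search across the genome for regulators of signalling from receptor tyrosine kinase to ERK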 (primary screen)
Cells: Drosophila S2R+ haemocyte-like cells expressing YFP-tagged ERK (Rolled)
Knock-down reagent: long dsRNA against Drosophila genes
Challenge: insulin stimulation versus unstimulated cells; dose and duration not given
Measured: 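Antibody staining for doubly phosphorylated ERK divided by ERK-YFP signal, as plate z-scores, in insulin-treated and untreated cells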
Scale: replicate 1, z-score of dpERK with insulin and replicate 2, z-score of dpERK with insulin: higher = more active ERK per ERK-YFP after insulin; replicate 1, z-score of dpERK under basal conditions: higher = more basal active ERK per ERK-YFP; replicate 1, z-score of ERK-YFP with insulin: higher = more YFP-tagged ERK signal

no.	target gene	DRSC id	replicate 1, z-score of dpERK with insulin	replicate 2, z-score of dpERK with insulin	replicate 1, z-score of dpERK under basal conditions	replicate 1, z-score of ERK-YFP with insulin
1	SdhB	DRSC05018	0.18	0.16	-0.66	0.06
2	SdhB	DRSC21367	0.37	0.26	-0.08	0.69
3	gcm	DRSC03536	0.66	1.16	0.99	-1.06
4	CG32266	DRSC08062	0.21	-0.02	0.33	0.09
5	CG17598	DRSC20636	-1.04	-0.4	-0.04	0.28
6	smash	DRSC12139	-0.52	-0.32	0.02	0.2
7	smash	DRSC12141	0.15	-0.01	-0.19	0.2
8	smash	DRSC12239	-1.35	-0.36	0.1	-0.45
9	smash	DRSC12289	0.77	0.03	0.37	0.31
10	Sys1	DRSC14372	0.08	-0.23	-1	0.21
11	Rh4 + sina	DRSC11396	0.17	0.26	0.22	0.29
12	WRNexo	DRSC16278	0.6	-0.35	0.88	0.24
13	Snp	DRSC04524	-0.04	0.82	0.56	0.88
14	Snp	DRSC21538	-0.06	0.42	-0.62	0.55
15	NT5E-2	DRSC06893	0.06	0.63	-0.4	1.63
16	CG9302	DRSC03191	-0.27	0.19	0.51	0.45
17	TbCMF46	DRSC02221	-0.68	0.04	0.83	-0.59
18	CG42458	DRSC08881	0.6	-0.45	0.11	0.25
19	CG42458	DRSC10335	-4.92	-3.82	-1.42	-0.74
20	CG40551 (retired record)	DRSC21229	0.62	-0.18	-0.17	0.16
21	ash2	DRSC16902	1.3	-0.26	-0.07	0.12
22	sgg	DRSC17228	0.02	0.19	0.29	-0.02
23	sgg	DRSC17722	-0.03	0.6	-0.36	0.01
24	sgg	DRSC18832	0.82	1.42	-0.28	0.13
25	pcm	DRSC20361	-0.13	-0.39	-0.14	-1.06
26	CG31064	DRSC14756	-0.94	-0.03	-0.29	0.61
27	CG31064	DRSC15941	-0.47	0.05	-0.5	1.18
28	CG31064	DRSC15942	0.81	-0.16	-0.62	0.2
29	CG31064	DRSC15943	-1.2	0.1	-0.04	-0.99
30	Cad96Ca	DRSC14220	1.09	0.15	-0.42	-1.93
31	Cad96Ca	DRSC16693	-0.81	0.1	-0.07	0.2
32	CG8136	DRSC16385	-0.11	-0.24	-0.38	-0.21
33	CG6136	DRSC15975	-0.56	-1.49	-0.19	0.22
34	dop	DRSC10655	1.48	2.11	2.48	-0.17
35	CG10433	DRSC04068	0.38	0.94	0	0.1
36	Ent3	DRSC09822	-1.7	0.69	0.67	1.03
37	CG6650	DRSC10685	0.76	0.29	1.73	0.19
38	CG11370	DRSC11653	-0.52	0.31	-1.05	-0.62
39	idc	DRSC15680	1.53	1.89	-2.01	1.25
40	Rrp5	DRSC15862	0.09	0.23	0.12	-0.49
41	Blos3	DRSC09573	2.14	0.99	0.86	-3.2
42	Septin1	DRSC20573	1.65	0.61	0.17	-0.32
43	Patsas	DRSC02975	-0.67	0.08	-1.65	0.74
44	eIF2Bepsilon	DRSC18769	0.06	0.24	-0.51	-1.13
45	Obp58b	DRSC04161	-0.29	-0.42	-0.12	0.25
46	cl	DRSC02118	0.63	0.32	-0.48	1.07
47	ctrip	DRSC12242	0.81	-2.66	-0.92	-1.35
48	ctrip	DRSC12287	-0.94	-0.27	0.72	-0.43
49	ctrip	DRSC22449	-1.42	-1.73	-0.28	-0.3
50	aurA	DRSC16905	0.46	-0.08	1.37	1.65
51	IntS11	DRSC15407	0.47	-0.09	-0.36	-1.19
52	trh	DRSC08355	0.95	0.34	-0.78	0.39
53	trh	DRSC08739	0.01	0.83	0.79	0.07
54	CG3225	DRSC00578	0.17	0.28	-0.67	0.73
55	Exn	DRSC09673	-1.6	-0.76	-0.28	0.8
56	Exn	DRSC10077	-0.08	-0.46	-0.54	0.23
57	CG15139 (retired record)	DRSC02439	0.6	0.09	-1.15	0.92
